Several values for one entry are separate records, joined by “and”; a condition that tells them apart may be missing. Equal values may be shown once. The shares of active, inactive and inconclusive entries below differ from those in the screen. A potency beside an inconclusive call is a rough fit, not a confirmed value. Activity calls are given as the source filed them. How the source made its calls: active means hit-call score of the fitted dose curve at least 0.9, where 1 is the maximum; inconclusive means response in the unintended direction; inactive means score below 0.9.
Each compound was assayed against chimpanzee Androgen Receptor (AR), AR (gene 747460) (UniProt O97775) (assay: NVS_NR_cAR: NovaScreen (NVS) Nuclear Receptor Binding Assay for chimpanzee Androgen Receptor (AR) (AID 2283346);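 further: radioligand displacement from AR measured by scintillation counting in a cell-free assay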).
In short: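 Cell-free radioligand displacement using receptor protein extracted from Sf9/Sf21 cells; bound radioligand measured by scintillation counting 72 hours after chemical dosing. Loss of signal versus DMSO baseline indicates binding; primary screen single-concentration in duplicate at 25 uM, actives followed in concentration series.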

Protein sequences, listed by entry. Tags and fused reporters are not part of them. Lines headed by an entry give the natural chain unless they say otherwise; changes in a name come on top.
UniProt O97775: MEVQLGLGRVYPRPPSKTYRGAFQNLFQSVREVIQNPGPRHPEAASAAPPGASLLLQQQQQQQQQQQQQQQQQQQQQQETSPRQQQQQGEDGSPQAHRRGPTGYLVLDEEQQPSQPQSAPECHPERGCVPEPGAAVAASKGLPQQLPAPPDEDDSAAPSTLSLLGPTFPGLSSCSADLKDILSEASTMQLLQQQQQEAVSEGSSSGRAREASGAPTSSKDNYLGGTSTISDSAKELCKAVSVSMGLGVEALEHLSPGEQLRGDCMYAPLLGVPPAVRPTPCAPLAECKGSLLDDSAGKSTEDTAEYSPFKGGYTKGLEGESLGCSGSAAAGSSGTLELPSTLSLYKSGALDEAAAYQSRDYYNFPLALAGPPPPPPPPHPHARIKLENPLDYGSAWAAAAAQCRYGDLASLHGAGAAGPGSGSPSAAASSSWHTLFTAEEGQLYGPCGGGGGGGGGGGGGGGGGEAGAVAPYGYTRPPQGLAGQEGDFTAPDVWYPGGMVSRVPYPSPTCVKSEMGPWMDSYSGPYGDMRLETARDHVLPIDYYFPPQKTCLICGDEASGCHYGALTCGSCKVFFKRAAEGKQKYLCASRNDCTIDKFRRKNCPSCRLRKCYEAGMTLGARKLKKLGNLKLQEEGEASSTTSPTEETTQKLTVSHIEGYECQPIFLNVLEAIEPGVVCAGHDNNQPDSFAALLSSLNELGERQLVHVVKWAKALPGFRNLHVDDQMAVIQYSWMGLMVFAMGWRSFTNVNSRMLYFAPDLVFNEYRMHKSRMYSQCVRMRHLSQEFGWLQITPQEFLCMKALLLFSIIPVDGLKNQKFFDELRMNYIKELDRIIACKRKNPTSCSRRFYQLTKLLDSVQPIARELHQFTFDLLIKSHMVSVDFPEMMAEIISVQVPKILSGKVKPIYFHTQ
UniProt P03372, whole entry, looked up: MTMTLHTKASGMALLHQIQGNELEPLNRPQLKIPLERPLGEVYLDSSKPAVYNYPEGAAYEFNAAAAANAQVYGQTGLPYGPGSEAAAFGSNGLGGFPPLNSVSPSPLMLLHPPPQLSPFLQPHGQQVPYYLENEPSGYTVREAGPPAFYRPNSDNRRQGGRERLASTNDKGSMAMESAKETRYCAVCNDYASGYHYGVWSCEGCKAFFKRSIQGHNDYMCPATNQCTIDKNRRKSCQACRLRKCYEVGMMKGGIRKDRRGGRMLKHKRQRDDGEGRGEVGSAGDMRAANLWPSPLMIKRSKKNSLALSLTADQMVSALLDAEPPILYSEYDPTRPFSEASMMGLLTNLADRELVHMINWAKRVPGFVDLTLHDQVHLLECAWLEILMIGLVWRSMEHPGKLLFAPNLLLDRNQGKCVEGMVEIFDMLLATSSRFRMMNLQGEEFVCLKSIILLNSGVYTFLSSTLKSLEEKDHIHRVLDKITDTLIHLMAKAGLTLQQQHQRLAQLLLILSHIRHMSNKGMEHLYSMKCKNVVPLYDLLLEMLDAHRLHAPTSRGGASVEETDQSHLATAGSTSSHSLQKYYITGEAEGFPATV
UniProt Q92731, whole entry, looked up: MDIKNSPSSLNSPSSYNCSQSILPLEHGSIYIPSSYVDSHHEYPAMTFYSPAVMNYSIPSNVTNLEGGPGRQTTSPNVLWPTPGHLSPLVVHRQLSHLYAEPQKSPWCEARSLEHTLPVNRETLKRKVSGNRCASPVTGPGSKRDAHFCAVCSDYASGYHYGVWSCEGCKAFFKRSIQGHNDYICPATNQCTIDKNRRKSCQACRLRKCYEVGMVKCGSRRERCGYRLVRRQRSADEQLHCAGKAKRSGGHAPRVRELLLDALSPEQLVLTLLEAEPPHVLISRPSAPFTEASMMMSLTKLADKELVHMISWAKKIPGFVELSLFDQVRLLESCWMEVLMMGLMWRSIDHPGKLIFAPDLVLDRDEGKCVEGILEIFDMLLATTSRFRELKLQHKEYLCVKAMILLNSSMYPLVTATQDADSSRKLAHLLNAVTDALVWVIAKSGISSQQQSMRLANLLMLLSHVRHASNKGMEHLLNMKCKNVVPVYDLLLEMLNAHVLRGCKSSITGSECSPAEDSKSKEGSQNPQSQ

Structure (SMILES) | AC50 | outcome
CCCCCCCCCCCCN(C)C | inconclusive: 5 µM | 
CNC(=O)O/N=C/C(C)(C)S(C)(=O)=O | inconclusive: 6.66 µM | 
O=c1oc2ccccc2c(O)c1C(CC(O)c1ccc(-c2ccc(Br)cc2)cc1)c1ccccc1 (stereo not drawn) |  | inactive
ClC(Cl)=C(c1ccc(Cl)cc1)c1ccc(Cl)cc1 | active: 16.8 µM | 

What follows are compounds tested against Estrogen receptor (Homo sapiens) (UniProt P03372) (assay: NVS_NR_hER: NovaScreen (NVS) Nuclear Receptor Binding Assay for human Estrogen Receptor (ER) (AID 2283348)).
In short: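 Radiodetection of ligand displacement in a lysate-based, cell-free format using MCF7 extracts, read at 18 hours. Duplicate 25 uM primary testing, then concentration series for actives.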

Structure (SMILES) | outcome | AC50
O=S(=O)(O)C(F)(F)C(F)(F)C(F)(F)C(F)(F)C(F)(F)C(F)(F)F | inactive | 
ClC1=C(Cl)C2(Cl)C3C(Cl)C=CC3C1(Cl)C2(Cl)Cl (stereo not drawn) |  | inconclusive: 25 µM
Cc1ccc(O)c(C)c1 | inactive | 
C[C@]12CCC(=O)C(O)=C1CC[C@@H]1[C@@H]2CC[C@]2(C)C(=O)CC[C@@H]12 |  | inconclusive: 25 µM
c1ccc2c(c1)sc1ccccc12 |  | inconclusive: 25 µM
CCCCCCCCOC(=O)c1ccccc1C(=O)OCCCCCCCC |  | inconclusive: 4.96 µM
O=[N+]([O-])c1ccc(Cl)c([N+](=O)[O-])c1 | inactive | 
CC(C)OC(=O)Nc1ccccc1 |  | inconclusive: 25 µM
COc1cc(OC)c(OC)cc1C=O | inactive | 
CCCCc1ccc(O)cc1 | inactive | 
N#Cc1c(Cl)c(Cl)c(Cl)c(C#N)c1Cl |  | inconclusive: 1.91 µM
CS(=O)(=O)c1cc(C(F)(F)F)ccc1C(=O)c1cnoc1C1CC1 |  | inconclusive: 25 µM
O=S(=O)(c1ccc(Cl)cc1)c1cc(Cl)c(Cl)cc1Cl |  | inconclusive: 25 µM
O=c1oc2ccccc2c(O)c1C(CC(O)c1ccc(-c2ccc(Br)cc2)cc1)c1ccccc1 (stereo not drawn) |  | inconclusive: 4.74 µM
Oc1c(Br)cc(Br)cc1Br |  | inconclusive: 0.117 µM
O=C(Cc1ccccc1)c1ccccc1 | inactive | 
ClC(Cl)=C(c1ccc(Cl)cc1)c1ccc(Cl)cc1 |  | inconclusive: 0.0386 µM
C(=NC1CCCCC1)=NC1CCCCC1 |  | inconclusive: 46.2 µM
CCCCCCCCCC[N+](C)(C)CCCCCCCCCC |  | active: 39.1 µM
CCOP(=O)(OCC)OC(=CCl)c1ccc(Cl)cc1Cl |  | inconclusive: 25 µM
CCC(C)(C)c1ccc(O)cc1 | inactive | 
CC(C)(c1ccc(OCC2CO2)cc1)c1ccc(OCC2CO2)cc1 (stereo not drawn) |  | active: 14.2 µM
CCCCN(CCCC)SN(C)C(=O)Oc1cccc2c1OC(C)(C)C2 | inactive | 
O=C(CCl)Nc1ccccc1 |  | inconclusive: 25 µM

The compounds below were run against Estrogen receptor (Homo sapiens) (UniProt P03372) (assay: OT_ER_ERaERa_1440: Odyssey Thera (OT) 24-hour HEK293T Protein-Complementation Assay for Estrogen Receptor-alpha/-alpha Homodimer (AID 2283349);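 further: hits raise fluorescence above DMSO for agonists and antagonists alike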).
In short: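 Stably transfected HEK293T; ERα LBD homodimer PCA. 24 h dosing, fluorescence intensity read, gain-of-signal vs DMSO.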

Structure (SMILES) | AC50
CC(=O)C=C(C)C | active: 26.6 µM
O=[N+]([O-])c1ccc(Cl)c([N+](=O)[O-])c1 | inconclusive: 50 µM
N#CCCC(Br)(C#N)CBr (stereo not drawn) | inconclusive: 50 µM

These compounds were tested against Estrogen receptor (Homo sapiens) (UniProt P03372) (assay: OT_ER_ERaERa_0480: Odyssey Thera (OT) 8-hour HEK293T Protein-Complementation Assay for Estrogen Receptor-alpha/-alpha Homodimer (AID 2283351);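 further: rise in fluorescence from reassembled reporter fragments on ERα LBD homodimer in nucleus or whole cell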).
In short: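 HEK293T cells stably expressing a PCA pair of ER alpha LBD (residues 310-547) were dosed for 8 hours. The gain in fluorescence intensity, nuclear for agonists and whole-cell for antagonists, was measured by laser scanning cytometry against DMSO vehicle.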

Structure (SMILES) | outcome | AC50
Oc1ccc(Cl)cc1Cl | inactive | 
CC(C)(C)N(NC(=O)c1ccc(Cl)cc1)C(=O)c1ccccc1 |  | inconclusive: 49.8 µM
COc1ccc(-c2ccccc2)cc1NNC(=O)OC(C)C |  | inconclusive: 50 µM
CCCCc1ccc(O)cc1 |  | active: 19.7 µM
C=CCOC(=O)C(C)(C)OC(=O)c1cc(-n2c(=O)cc(C(F)(F)F)n(C)c2=O)ccc1Cl |  | inconclusive: 50.5 µM
N#CCCC(Br)(C#N)CBr (stereo not drawn) |  | inconclusive: 50 µM
CN(C)C(=O)Cl |  | inconclusive: 50 µM
ClC(Cl)=C(c1ccc(Cl)cc1)c1ccc(Cl)cc1 |  | active: 80.1 µM and active: 56.9 µM and active: 63.7 µM
CCC(C)(C)C(=O)OC1=C(c2ccc(Cl)cc2Cl)C(=O)OC12CCCCC2 |  | inconclusive: 50 µM
O=S(=O)(O)C(F)(F)C(F)(F)C(F)(F)C(F)(F)F |  | inconclusive: 52.5 µM

Each compound was assayed against Estrogen receptor (Homo sapiens) + Estrogen receptor beta (Homo sapiens) (UniProt P03372+Q92731) (assay: OT_ER_ERaERb_0480: Odyssey Thera (OT) 8-hour HEK293T Protein-Complementation Assay for Estrogen Receptor-alpha/-beta Heterodimer (AID 2283352)).
In short: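 HEK293T protein-fragment complementation assay of ER-alpha/ER-beta LBD heterodimerisation, read 8 h after dosing. Mean nuclear/cytoplasmic fluorescence intensity measured by laser scanning cytometry; gain of signal fitted relative to DMSO.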

Structure (SMILES) | AC50 | outcome
O=CNC(N1CCN(C(NC=O)C(Cl)(Cl)Cl)CC1)C(Cl)(Cl)Cl (stereo not drawn) | inconclusive: 50 µM | 
CNC(=O)O/N=C/C(C)(C)S(C)(=O)=O |  | inactive
CC(C)(C)N(NC(=O)c1ccc(Cl)cc1)C(=O)c1ccccc1 | inconclusive: 49.8 µM | 
N#Cc1c(Cl)c(Cl)c(Cl)c(C#N)c1Cl | inconclusive: 16.8 µM | 
CCCCCCCCCC[N+](C)(C)CCCCCCCCCC |  | inactive
O=S(=O)(O)C(F)(F)C(F)(F)C(F)(F)C(F)(F)F | inconclusive: 52.5 µM | 
O=C(CCl)Nc1ccccc1 | inconclusive: 50 µM | 

— PubChem BioAssay (EPA / NIEHS)
